Results published in US20210171576A1, “METHODS FOR TREATING CANCER WITH ACYLDEPSIPEPTIDE ANALOGS” (priority 2018, published 2021).

B1: ETFB (protein, UniProt P38117 2-255, looked up)
Electron transfer …: AELRVLVAVKRVIDYAVKIRVKPDRTGVVTDGVKHSMNPFCEIAVEEAVRLKEKKLVKEVIAVSCGPAQCQETIRTALAMGADRGIHVEVPPAEAERLGPLQVARVLAKLAEKEKVDLVLLGKQAIDDDCNQTGQMTAGFLDWPQGTFASQVTLEGDKLKVEREIDGGLETLRLKLPAVVTADLRLNEPRYATLPNIMKAKKKKIEVIKPGDLGVDLTSKLSVISVEDPPQRTAGVKVETTEDLVAKLKEIGRI
B2: ECH1 (protein, UniProt Q13011 34-328, looked up)
Delta(3,5)-Delta(2,4)-dienoyl- …: TGSSAQEEASGVALGEAPDHSYESLRVTSAQKHVLHVQLNRPNKRNAMNKVFWREMVECFNKISRDADCRAVVISGAGKMFTAGIDLMDMASDILQPKGDDVARISWYLRDIITRYQETFNVIERCPKPVIAAVHGGCIGGGVDLVTACDIRYCAQDAFFQVKEVDVGLAADVGTLQRLPKVIGNQSLVNELAFTARKMMADEALGSGLVSRVFPDKEVMLDAALALAAEISSKSPVAVQSTKVNLLYSRDHSVAESLNYVASWNMSMLQTQDLVKSVQATTENKELKTVTFSKL
B3: CYB5R3 (protein, UniProt P00387 2-301, looked up)
NADH-cytochrome b5 reductase 3: GAQLSTLGHMVLFPVWFLYSLLMKLFQRSTPAITLESPDIKYPLRLIDREIISHDTRRFRFALPSPQHILGLPVGQHIYLSARIDGNLVVRPYTPISSDDDKGFVDLVIKVYFKDTHPKFPAGGKMSQYLESMQIGDTIEFRGPSGLLVYQGKGKFAIRPDKKSNPIIRTVKSVGMIAGGTGITPMLQVIRAIMKDPDDHTVCHLLFANQTEKDILLRPELEELRNKHSARFKLWYTLDRAPEAWDYGQGFVNEEMIRDHLPPPEEEPLVLMCGPPPMIQYACLPNLDHVGHPTERCFVF
B4: CYC1 (protein, UniProt P08574 85-325, looked up)
Cytochrome c1, heme protein, …: SDLELHPPSYPWSHRGLLSSLDHTSIRRGFQVYKQVCASCHSMDFVAYRHLVGVCYTEDEAKELAAEVEVQDGPNEDGEMFMRPGKLFDYFPKPYPNSEAARAANNGALPPDLSYIVRARHGGEDYVFSLLTGYCEPPTGVSLREGLYFNPYFPGQAIAMAPPIYTDVLEFDDGTPATMSQIAKDVCTFLRWASEPEHDHRKRMGLKMLMMMALLVPLVYTIKRHKWSVLKSRKLAYRPPK
B5: DHX30 (protein, UniProt Q7L2E3 1-1194, looked up)
ATP-dependent RNA helicase …: MFSLDSFRKDRAQHRQRQCKLPPPRLPPMCVNPTPGGTISRASRDLLKEFPQPKNLLNSVIGRALGISHAKDKLVYVHTNGPKKKKVTLHIKWPKSVEVEGYGSKKIDAERQAAAAACQLFKGWGLLGPRNELFDAAKYRVLADRFGSPADSWWRPEPTMPPTSWRQLNPESIRPGGPGGLSRSLGREEEEDEEEELEEGTIDVTDFLSMTQQDSHAPLRDSRGSSFEMTDDDSAIRALTQFPLPKNLLAKVIQIATSSSTAKNLMQFHTVGTKTKLSTLTLLWPCPMTFVAKGRRKAEAENKAAALACKKLKSLGLVDRNNEPLTHAMYNLASLRELGETQRRPCTIQVPEPILRKIETFLNHYPVESSWIAPELRLQSDDILPLGKDSGPLSDPITGKPYVPLLEAEEVRLSQSLLELWRRRGPVWQEAPQLPVDPHRDTILNAIEQHPVVVISGDTGCGKTTRIPQLLLERYVTEGRGARCNVIITQPRRISAVSVAQRVSHELGPSLRRNVGFQVRLESKPPSRGGALLFCTVGILLRKLQSNPSLEGVSHVIVDEVHERDVNTDFLLILLKGLQRLNPALRLVLMSATGDNERFSRYFGGCPVIKVPGFMYPVKEHYLEDILAKLGKHQYLHRHRHHESEDECALDLDLVTDLVLHIDARGEPGGILCFLPGWQEIKGVQQRLQEALGMHESKYLILPVHSNIPMMDQKAIFQQPPVGVRKIVLATNIAETSITINDIVHVVDSGLHKEERYDLKTKVSCLETVWVSRANVIQRRGRAGRCQSGFAYHLFPRSRLEKMVPFQVPEILRTPLENLVLQAKIHMPEKTAVEFLSKAVDSPNIKAVDEAVILLQEIGVLDQREYLTTLGQRLAHISTDPRLAKAIVLAAIFRCLHPLLVVVSCLTRDPFSSSLQNRAEVDKVKALLSHDSGSDHLAFVRAVAGWEEVLRWQDRSSRENYLEENLLYAPSLRFIHGLIKQFSENIYEAFLVGKPSDCTLASAQCNEYSEEEELVKGVLMAGLYPNLIQVRQGKVTRQGKFKPNSVTYRTKSGNILLHKSTINREATRLRSRWLTYFMAVKSNGSVFVRDSSQVHPLAVLLLTDGDVHIRDDGRRATISLSDSDLLRLEGDSRTVRLLKELRRALGRMVERSLRSELAALPPSVQEEHGQLLALLAELLRGPCGSFDVRKTADD
B6: DDX28 (protein, UniProt Q9NUL7 1-540, looked up)
Probable ATP-dependent RNA …: MALTRPVRLFSLVTRLLLAPRRGLTVRSPDEPLPVVRIPVALQRQLEQRQSRRRNLPRPVLVRPGPLLVSARRPELNQPARLTLGRWERAPLASQGWKSRRARRDHFSIERAQQEAPAVRKLSSKGSFADLGLEPRVLHALQEAAPEVVQPTTVQSSTIPSLLRGRHVVCAAETGSGKTLSYLLPLLQRLLGQPSLDSLPIPAPRGLVLVPSRELAQQVRAVAQPLGRSLGLLVRDLEGGHGMRRIRLQLSRQPSADVLVATPGALWKALKSRLISLEQLSFLVLDEADTLLDESFLELVDYILEKSHIAEGPADLEDPFNPKAQLVLVGATFPEGVGQLLNKVASPDAVTTITSSKLHCIMPHVKQTFLRLKGADKVAELVHILKHRDRAERTGPSGTVLVFCNSSSTVNWLGYILDDHKIQHLRLQGQMPALMRVGIFQSFQKSSRDILLCTDIASRGLDSTGVELVVNYDFPPTLQDYIHRAGRVGRVGSEVPGTVISFVTHPWDVSLVQKIELAARRRRSLPGLASSVKEPLPQAT
B7: DARS2 (protein, UniProt Q6PI48 48-645, looked up)
Aspartate--tRNA ligase, …: VVRTNTCGELRSSHLGQEVTLCGWIQYRRQNTFLVLRDFDGLVQVIIPQDESAASVKKILCEAPVESVVQVSGTVISRPAGQENPKMPTGEIEIKVKTAELLNACKKLPFEIKNFVKKTEALRLQYRYLDLRSFQMQYNLRLRSQMVMKMREYLCNLHGFVDIETPTLFKRTPGGAKEFLVPSREPGKFYSLPQSPQQFKQLLMVGGLDRYFQVARCYRDEGSRPDRQPEFTQIDIEMSFVDQTGIQSLIEGLLQYSWPNDKDPVVVPFPTMTFAEVLATYGTDKPDTRFGMKIIDISDVFRNTEIGFLQDALSKPHGTVKAICIPEGAKYLKRKDIESIRNFAADHFNQEILPVFLNANRNWNSPVANFIMESQRLELIRLMETQEEDVVLLTAGEHNKACSLLGKLRLECADLLETRGVVLRDPTLFSFLWVVDFPLFLPKEENPRELESAHHPFTAPHPSDIHLLYTEPKKARSQHYDLVLNGNEIGGGSIRIHNAELQRYILATLLKEDVKMLSHLLQALDYGAPPHGGIALGLDRLICLVTGSPSIRDVIAFPKSFRGHDLMSNTPDSVPPEELKPYHIRVSKPTDSKAERAH
B8: COQ5 (protein, UniProt Q5HYK3 43-327, looked up)
2-methoxy-6-polyprenyl-1,4-ben …: LSQEKRAAETHFGFETVSEEEKGGKVYQVFESVAKKYDVMNDMMSLGIHRVWKDLLLWKMHPLPGTQLLDVAGGTGDIAFRFLNYVQSQHQRKQKRQLRAQQNLSWEEIAKEYQNEEDSLGGSRVVVCDINKEMLKVGKQKALAQGYRAGLAWVLGDAEELPFDDDKFDIYTIAFGIRNVTHIDQALQEAHRVLKPGGRFLCLEFSQVNNPLISRLYDLYSFQVIPVLGEVIAGDWKSYQYLVESIRRFPSQEEFKDMIEDAGFHKVTYESLTSGIVAIHSGFKL
B9: CECR5 (protein, UniProt Q9BXW7 24-423, looked up)
Haloacid dehalogenase-like …: AAGLQGRPARRCYAVGPAQSPPTFGFLLDIDGVLVRGHRVIPAALKAFRRLVNSQGQLRVPVVFVTNAGNILQHSKAQELSALLGCEVDADQVILSHSPMKLFSEYHEKRMLVSGQGPVMENAQGLGFRNVVTVDELRMAFPLLDMVDLERRLKTTPLPRNDFPRIEGVLLLGEPVRWETSLQLIMDVLLSNGSPGAGLATPPYPHLPVLASNMDLLWMAEAKMPRFGHGTFLLCLETIYQKVTGKELRYEGLMGKPSILTYQYAEDLIRRQAERRGWAAPIRKLYAVGDNPMSDVYGANLFHQYLQKATHDGAPELGAGGTRQQQPSASQSCISILVCTGVYNPRNPQSTEPVLGGGEPPFHGHRDLCFSPGLMEASHVVNDVNEAVQLVFRKEGWALE
B10: FDXR (protein, UniProt P22570 33-491, looked up)
NADPH:adrenodoxin …: STQEKTPQICVVGSGPAGFYTAQHLLKHPQAHVDIYEKQPVPFGLVRFGVAPDHPEVKNVINTFTQTAHSGRCAFWGNVEVGRDVTVPELREAYHAVVLSYGAEDHRALEIPGEELPGVCSARAFVGWYNGLPENQELEPDLSCDTAVILGQGNVALDVARILLTPPEHLERTDITKAALGVLRQSRVKTVWLVGRRGPLQVAFTIKELREMIQLPGARPILDPVDFLGLQDKIKEVPRPRKRLTELLLRTATEKPGPAEAARQASASRAWGLRFFRSPQQVLPSPDGRRAAGVRLAVTRLEGVDEATRAVPTGDMEDLPCGLVLSSIGYKSRPVDPSVPFDSKLGVIPNVEGRVMDVPGLYCSGWVKRGPTGVIATTMTDSFLTGQMLLQDLKAGLLPSGPRPGYAAIQALLSSRGVRPVSFSDWEKLDAEEVARGQGTGKPREKLVDPQEMLRLLGH
B11: ETFA (protein, UniProt P13804 20-333, looked up)
Electron transfer …: QSTLVIAEHANDSLAPITLNTITAATRLGGEVSCLVAGTKCDKVAQDLCKVAGIAKVLVAQHDVYKGLLPEELTPLILATQKQFNYTHICAGASAFGKNLLPRVAAKLEVAPISDIIAIKSPDTFVRTIYAGNALCTVKCDEKVKVFSVRGTSFDAAATSGGSASSEKASSTSPVEISEWLDQKLTKSDRPELTGAKVVVSGGRGLKSGENFKLLYDLADQLHAAVGASRAAVDAGFVPNDMQVGQTGKIVAPELYIAVGISGAIQHLAGMKDSKTIVAINKDPEAPIFQVADYGIVADLFKVVPEMTEILKKK
B12: DLAT (protein, UniProt P10515 87-647, looked up)
Dihydrolipoyllysine-residue …: SLPPHQKVPLPSLSPTMQAGTIARWEKKEGDKINEGDLIAEVETDKATVGFESLEECYMAKILVAEGTRDVPIGAIICITVGKPEDIEAFKNYTLDSSAAPTPQAAPAPTPAATASPPTPSAQAPGSSYPPHMQVLLPALSPTMTMGTVQRWEKKVGEKLSEGDLLAEIETDKATIGFEVQEEGYLAKILVPEGTRDVPLGTPLCIIVEKEADISAFADYRPTEVTDLKPQVPPPTPPPVAAVPPTPQPLAPTPSAPCPATPAGPKGRVFVSPLAKKLAVEKGIDLTQVKGTGPDGRITKKDIDSFVPSKVAPAPAAVVPPTGPGMAPVPTGVFTDIPISNIRRVIAQRLMQSKQTIPHYYLSIDVNMGEVLLVRKELNKILEGRSKISVNDFIIKASALACLKVPEANSSWMDTVIRQNHVVDVSVAVSTPAGLITPIVFNAHIKGVETIANDVVSLATKAREGKLQPHEFQGGTFTISNLGMFGIKNFSAIINPPQACILAIGASEDKLVPADNEKGFDVASMMSVTLSCDHRVVDGAVGAQWLAEFRKYLEKPITMLL

Test system: mitochondrial proteins of HEK293 T-REx cells
Experiment: Mitochondrial proteome profiling for WT and CLPP^−/− (fold change CLPP^−/−/WT)
Set-up: species or system human
Details: fold change of mitochondrial protein detected in CLPP knockout compared to WT HEK293 T-REx cells; MaxQuant total peptide ion intensity

Row | Molecule | Avg. fold change (CLPP KO/WT)
1 | B1 | −1.46
2 | B2 | 1.33
3 | B3 | −1.20
4 | B4 | 1.32
5 | B5 | −1.19
6 | B6 | −1.36
7 | B7 | −1.07
8 | B8 | −1.19
9 | B9 | −1.06
10 | B10 | −1.17
11 | B11 | 1.06
12 | B12 | −1.43
